Data as given in PubChem BioAssay AID504744 (Drosophila RNAi Screening Center, 2011)
The deposit covers about 23,000 reagents; shown is a random part of those with a known target gene and a result. Over the whole deposit, 98 (0.43%) got an active call. 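Only hit calls are given; the phospho-dAkt signals, z-scores and hit direction were not deposited.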 A plus sign joins genes that one reagent is predicted to hit.

Assay: 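Find genes whose loss alters insulin-driven dAkt phosphorylation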 (primary screen)
Cell system: Drosophila Kc167 cells
Reagents: long dsRNA against Drosophila genes, 250 ng dsRNA per well of a 384-well plate
Duration: 3 days of knock-down, then overnight serum-free starvation before stimulation
Conditions: bovine insulin at 387 nM for 10 minutes after 12 h without serum
Read-out: 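Per-well phospho-dAkt level from an in-cell fluorescent antibody stain, divided by a DNA-dye signal; log2 residuals turned into z-scores that take cell number into account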
Rule for the call: 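Under insulin, a gene counts as a hit if the average z-score of two replicates lies above 2.5 or below -2.5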

| gene knocked down | DRSC id | Outcome |
| --- | --- | --- |
| Ir67c | DRSC22097 | inactive |
| Cdk5 | DRSC07359 | inactive |
| Pof | DRSC04405 | inactive |
| ALiX | DRSC14564 | inactive |
| CG5292 | DRSC15763 | inactive |
| Ilp6 | DRSC17906 | inactive |
| obst-E | DRSC02128 | inactive |
| MED23 + CG3700 | DRSC04406 | inactive |
| MED23 + CG3700 | DRSC04407 | inactive |
| Ehbp1 | DRSC06561 | inactive |
| ccb | DRSC20501 | inactive |
| CG10494 | DRSC04072 | inactive |
| lncRNA:CR42862 + CG33229 | DRSC08497 | inactive |
| Gem3 | DRSC11144 | active |
| numb | DRSC03584 | inactive |
| CG17744 | DRSC10286 | inactive |
| CG8326 | DRSC20103 | inactive |
| Nplp1 | DRSC04370 | inactive |
| AdamTS-B | DRSC18346 | inactive |
| CG33992 (retired record) + CG43755 | DRSC00012 | inactive |
| angel | DRSC04670 | inactive |
| angel | DRSC21326 | inactive |
| CG30369 | DRSC21996 | inactive |
| Hr38 | DRSC03345 | inactive |
| alpha-Man-Ic | DRSC21674 | inactive |
| Nrd1 | DRSC19830 | inactive |
| CG13407 | DRSC14583 | inactive |
| ckn | DRSC06149 | inactive |
| CG13255 | DRSC11702 | inactive |
| Dbp73D | DRSC11142 | inactive |
| Prat2 | DRSC09692 | inactive |
| Pex14 | DRSC11754 | inactive |
| Sodh1 | DRSC12605 | inactive |
| Ilk | DRSC11868 | inactive |
| CG9410 + CG15908 | DRSC04976 | inactive |
| CG9410 + CG15908 | DRSC05001 | inactive |
| CG14125 | DRSC10129 | inactive |
| RhoGAP18B | DRSC19763 | inactive |
| RhoGAP18B | DRSC20047 | inactive |
| RhoGAP18B | DRSC20048 | inactive |
| RhoGAP18B | DRSC20049 | inactive |
| CG4363 | DRSC04465 | inactive |
| Eb1 | DRSC05016 | inactive |
| CkIIbeta2 | DRSC07361 | inactive |
| CG4483 | DRSC10426 | inactive |
| TfIIA-L | DRSC16882 | inactive |
| Acsx1L | DRSC16014 | inactive |
| Pxn | DRSC08685 | inactive |
| CG11456 | DRSC11665 | inactive |
| CG8349 | DRSC03083 | inactive |
| mud | DRSC19019 | inactive |
| Nep5 | DRSC16004 | inactive |
| Fer2LCH | DRSC16672 | inactive |
| Zir | DRSC00307 | inactive |
| Rbpn-5 | DRSC04440 | inactive |
| bol | DRSC08964 | inactive |
| bol | DRSC10444 | inactive |
| bol | DRSC11329 | inactive |
| Gpdh3 | DRSC13561 | inactive |
| Gpdh3 | DRSC15325 | inactive |

Records above whose gene name starts with A or a:
| gene knocked down | DRSC id | Outcome |
| --- | --- | --- |
| ALiX | DRSC14564 | inactive |
| AdamTS-B | DRSC18346 | inactive |
| angel | DRSC04670 | inactive |
| angel | DRSC21326 | inactive |
| alpha-Man-Ic | DRSC21674 | inactive |
| Acsx1L | DRSC16014 | inactive |

Continued.
| gene knocked down | DRSC id | Outcome |
| --- | --- | --- |
| faf | DRSC16942 | inactive |
| RpS28a | DRSC15064 | inactive |
| Oda | DRSC07626 | inactive |
| CG6659 | DRSC20003 | inactive |
| ppk5 | DRSC11492 | inactive |
| JMJD7 | DRSC09703 | inactive |
| 5-HT2A | DRSC11990 | inactive |
| comm3 | DRSC09993 | inactive |
| comm3 | DRSC09994 | inactive |
| comm3 | DRSC09995 | inactive |
| CG13862 | DRSC14712 | inactive |
| Nipsnap | DRSC20169 | inactive |
| Tif-IA | DRSC03717 | inactive |
| Tif-IA | DRSC03726 | inactive |
| CG9855 | DRSC12344 | inactive |
| CG33758 | DRSC05158 | inactive |
| CG8066 | DRSC16374 | inactive |
| Ptpa | DRSC00776 | inactive |
| CG42496 + Ppcdc | DRSC03886 | inactive |
| CG44422 | DRSC18885 | inactive |
| CG44422 | DRSC19380 | inactive |
| CG44422 | DRSC19480 | inactive |
| Pif1A + Pif1B | DRSC14142 | inactive |
| Pif1A + Pif1B | DRSC14380 | inactive |
| Pif1A + Pif1B | DRSC14381 | inactive |
| CG3434 | DRSC10365 | inactive |
| qsm | DRSC05896 | inactive |
| qsm | DRSC06393 | inactive |
| Pgd | DRSC18697 | inactive |
| Sirt7 | DRSC14294 | inactive |
| Hrs | DRSC00549 | inactive |
| Hsp67Bc | DRSC11193 | inactive |
| Cpr49Ag | DRSC07203 | inactive |
| Idh3b | DRSC16040 | inactive |
| CG5608 | DRSC15841 | inactive |
| CG8813 | DRSC00706 | inactive |
| CG34348 | DRSC19425 | inactive |
| CG34348 | DRSC19644 | inactive |
| Dhc36C | DRSC03315 | inactive |
| CG3085 | DRSC04335 | inactive |
| CG15464 (retired record) | DRSC18047 | inactive |
| CG15464 (retired record) | DRSC22086 | inactive |
| Nab2 | DRSC14158 | inactive |
| CG6996 | DRSC10758 | inactive |
| CG14657 | DRSC12219 | inactive |
| CG14657 | DRSC12243 | inactive |
| Golgin97 | DRSC06895 | inactive |
| Os-C | DRSC16778 | inactive |
| Unc50 | DRSC16561 | inactive |
| CG7139 | DRSC11611 | inactive |
| Listericin | DRSC07334 | inactive |
| AP-1mu | DRSC14089 | inactive |
| sinu | DRSC09752 | inactive |
| CG42324 | DRSC08431 | inactive |
| CG42324 | DRSC08432 | inactive |
| eIF3d2 | DRSC15651 | inactive |
| Fas2 | DRSC17308 | inactive |
| Fas2 | DRSC17309 | inactive |
| Fas2 | DRSC18664 | inactive |
| sni | DRSC17770 | inactive |
| mbo | DRSC16123 | inactive |
| CG13786 | DRSC02289 | inactive |
| Tmf | DRSC18368 | inactive |
| Grip163 | DRSC10538 | inactive |
| Ssl1 | DRSC11634 | inactive |
| CG1307 | DRSC12492 | inactive |
| CtsK1 | DRSC08742 | inactive |
| Acp26Aa | DRSC01855 | inactive |
| CG33310 | DRSC01897 | inactive |
| cnir | DRSC00499 | inactive |
| FAM21 | DRSC06623 | inactive |
| Dh44-R2 | DRSC06141 | inactive |
| Dh44-R2 | DRSC06281 | inactive |
| Uba2 | DRSC11311 | inactive |
| CG1239 | DRSC12204 | inactive |
| Jon65Ai | DRSC09731 | inactive |
| CG9826 | DRSC04570 | inactive |
| CG9302 | DRSC03191 | inactive |
| Obp85a | DRSC14362 | inactive |
| CG4607 | DRSC18375 | inactive |
| CG4477 | DRSC10425 | inactive |
| CG11911 | DRSC00331 | inactive |
| shrb | DRSC07061 | inactive |
| CG4666 | DRSC18379 | inactive |
| Muc4B | DRSC18062 | inactive |
| Muc4B | DRSC18063 | inactive |
| path | DRSC10361 | inactive |
| CG2852 | DRSC04321 | inactive |
| CG7294 | DRSC03041 | inactive |
| CG32563 | DRSC19934 | inactive |
| CG1701 | DRSC06641 | inactive |
| Raf | DRSC18821 | inactive |
| ACOX1 | DRSC05941 | inactive |
| CG33673 | DRSC00084 | inactive |
| Gr58a | DRSC03910 | inactive |
| CR42546 | DRSC03711 | inactive |
| Frl | DRSC09300 | inactive |
| Frl | DRSC10027 | inactive |
| Frl | DRSC10716 | inactive |
